The experiment relates to L1210 leukemia ip in BDF1 mice, survival T/C. The experiment is described as follows: NCI In Vivo Anticancer Drug Screen. Data for tumor model L1210 Leukemia (intraperitoneal) in B6D2F1 (BDF1) mice. The conditions noted are these: T/C endpoint: mean survival time, higher T/C = longer survival.
The mark [1] stands for this setting: dose: 400.0 mg/kg/injection, schedule: Q01DX001 (ip), vehicle: carboxymethylcellulose (CMC).
The mark [2] stands for this setting: dose: 400.0 mg/kg/injection, schedule: Q04DX003 (ip), vehicle: saline.

The list shows only some results of the screen, not a fair sample: it gathers tests that were run many times, whatever their T/C, doses with no T/C, and many T/C values between a quarter and a half above the control. Other doses and runs of a compound stand elsewhere. T/C: endpoint of the treated group in % of that of the vehicle group. Some doses have a count of surviving animals in place of a T/C: the source holds a T/C of zero for them, seemingly a mark for toxic or unscored doses. Some survivor counts are full or nearly so, which does not show that the dose was tolerated: survival well below the control is almost never listed, so the zero probably covers shortened survival too. Counts of survivors are from the toxicity check (mostly the fifth day) where no day follows; animals may have died later. Schedule codes are those of the source, read here as Q, the interval in days (D) or hours (H), X, the number of doses. Some doses were run more than once; the values are given in rising order. Some schedules carry Z or #; the key to these is not given. Where survival is the endpoint, this PubChem deposit counts one and a half times the control or more as active, and values a quarter to a half above the control carry no call in these data; other NCI protocols may use other cut-offs. Some T/C values carry the count of animals alive at the toxicity check (mostly the fifth day); without a count, all were alive then.

In the case of `COc1cc(C=Nc2cc(Cl)c(OC)c(Cl)c2)ccc1N(CCCl)CCCl`, the T/C is 125 % of control (dose: 39.0 mg/kg/injection, schedule: Q01DX001 (ip), vehicle: carboxymethylcellulose (CMC)); 137 % of control (dose: 59.0 mg/kg/injection, schedule: Q01DX001 (ip), vehicle: carboxymethylcellulose (CMC)); 133 % of control (dose: 66.0 mg/kg/injection, schedule: Q01DX001 (ip), vehicle: carboxymethylcellulose (CMC)); 130 and 148 % of control (dose: 89.0 mg/kg/injection, schedule: Q01DX001 (ip), vehicle: carboxymethylcellulose (CMC)); 138 % of control (dose: 100.0 mg/kg/injection, schedule: Q01DX001 (ip), vehicle: carboxymethylcellulose (CMC), evaluated on day 30); 134 % of control (dose: 100.0 mg/kg/injection, schedule: Q01DX001 (ip), vehicle: carboxymethylcellulose (CMC), run until all animals had died). For the same compound, the T/C is, setting by setting: (dose: 133.0 mg/kg/injection, schedule: Q01DX001 (ip), vehicle: carboxymethylcellulose (CMC)) 139 % of control; (dose: 200.0 mg/kg/injection, schedule: Q01DX001 (ip), vehicle: carboxymethylcellulose (CMC)) 130 and 142 % of control; (dose: 338.0 mg/kg/injection, schedule: Q01DX001 (ip), vehicle: carboxymethylcellulose (CMC)) 134 % of control [5 of 6 alive]; under setting [1], 134 % of control. For the same compound, the survivor count is, setting by setting: (dose: 60.0 mg/kg/injection, schedule: Q01DX009 (ip), vehicle: carboxymethylcellulose (CMC)) 5 of 6; (dose: 90.0 mg/kg/injection, schedule: Q01DX009 (ip), vehicle: carboxymethylcellulose (CMC)) 6 of 6.
Take `CCN(CCCl)CCNc1c2ccccc2nc2c1ccc1ccccc12`: the survivor count is, setting by setting: (dose: 9.0 mg/kg/injection, schedule: Q01DX009 (ip), vehicle: saline) 3 of 6; (dose: 18.0 mg/kg/injection, schedule: Q01DX009 (ip), vehicle: saline) 2 of 6; (dose: 27.0 mg/kg/injection, schedule: Q01DX009 (ip), vehicle: saline) 1 of 6; (dose: 36.0 mg/kg/injection, schedule: Q01DX009 (ip), vehicle: saline) 1 of 6.
In the case of `CC1(C)N=C(N)N=C(N)N1c1ccc(OCCCNC(=O)Nc2ccc(S(=O)(=O)F)cc2)c(Cl)c1`, the survivor count runs as follows: (dose: 200.0 mg/kg/injection, schedule: Q01DX004 (ip), vehicle: saline) 0 of 6; (dose: 400.0 mg/kg/injection, schedule: Q01DX004 (ip), vehicle: saline) 0 of 6.
In the case of `CN(N=O)C(=O)NC(=O)NCCCl`, the T/C (dose: 18.0 mg/kg/injection, schedule: Q01DX001 (ip), vehicle: carboxymethylcellulose (CMC)) is 134 % of control; the T/C (dose: 40.0 mg/kg/injection, schedule: Q01DX001 (ip), vehicle: carboxymethylcellulose (CMC)) is 130 % of control; the T/C (dose: 60.0 mg/kg/injection, schedule: Q01DX001 (ip), vehicle: carboxymethylcellulose (CMC)) is 134 % of control; the T/C (dose: 93.0 mg/kg/injection, schedule: Q01DX001 (ip), vehicle: carboxymethylcellulose (CMC)) was 136 % of control; the T/C (dose: 187.0 mg/kg/injection, schedule: Q01DX001 (ip), vehicle: carboxymethylcellulose (CMC)) is 146 % of control. Moreover, the survivor count (dose: 375.0 mg/kg/injection, schedule: Q01DX001 (ip), vehicle: carboxymethylcellulose (CMC)) is 4 of 6.
Turning to `NC(CS)=NCC12CC3CC(CC(C3)C1)C2`, the survivor count is 0 of 6 (dose: 50.0 mg/kg/injection, schedule: Q04DX003 (ip), vehicle: carboxymethylcellulose (CMC)); 0 of 3 (dose: 100.0 mg/kg/injection, schedule: Q01DX001 (ip), vehicle: Klucel (hydroxypropylcellulose) (HPC)); 0 of 6 (dose: 100.0 mg/kg/injection, schedule: Q04DX003 (ip), vehicle: carboxymethylcellulose (CMC)); 0 of 3 (dose: 200.0 mg/kg/injection, schedule: Q01DX001 (ip), vehicle: Klucel (hydroxypropylcellulose) (HPC)); 0 of 6 (dose: 200.0 mg/kg/injection, schedule: Q04DX003 (ip), vehicle: carboxymethylcellulose (CMC)); 0 of 3 (dose: 400.0 mg/kg/injection, schedule: Q01DX001 (ip), vehicle: Klucel (hydroxypropylcellulose) (HPC)). Further, the survivor count (dose: 400.0 mg/kg/injection, schedule: Q04DX003 (ip), vehicle: carboxymethylcellulose (CMC)) is listed as 0 of 6.
On to `CCCCCCN1CCCC(OC(=O)N(C)C)C1` (configuration not stated), for which the survivor count is, setting by setting: (dose: 200.0 mg/kg/injection, schedule: Q04DX002 (ip), vehicle: saline) 0 of 3; (dose: 400.0 mg/kg/injection, schedule: Q04DX002 (ip), vehicle: saline) 0 of 3.
In the case of `CCOC(=O)c1c[nH]c2cc(OC)ccc2c1=O`, the survivor count (dose: 400.0 mg/kg/injection, schedule: Q01DX009 (ip), vehicle: saline with Tween-80) is 6 of 6.
As for `Cc1ccc([N+](=O)[O-])c(O)c1[N+](=O)[O-]`, where the note is “dose: 400.0 mg/kg/injection, schedule: Q01DX009 (ip), vehicle: Klucel (hydroxypropylcellulose) (HPC)”, the survivor count is listed as 2 of 6.
In the case of `CN(N=O)C(=O)NCCCNC(=O)N(C)N=O`, the T/C (dose: 50.0 mg/kg/injection, schedule: Q01DX Z (ip), vehicle: carboxymethylcellulose (CMC)) is 141 % of control; the T/C (dose: 200.0 mg/kg/injection, schedule: Q01DX Z (ip), vehicle: carboxymethylcellulose (CMC)) was 146 % of control; the T/C (dose: 600.0 mg/kg/injection, schedule: Q01DX001 (ip), vehicle: carboxymethylcellulose (CMC)) is 136 % of control [7 of 10 alive]; the T/C (dose: 1200.0 mg/kg/injection, schedule: Q01DX001 (ip), vehicle: saline) was 126 % of control; the T/C (dose: 2400.0 mg/kg/injection, schedule: Q01DX001 (ip), vehicle: saline) is 145 % of control [9 of 10 alive]. The survivor count is on record as 1 of 10 (dose: 1200.0 mg/kg/injection, schedule: Q01DX001 (ip), vehicle: carboxymethylcellulose (CMC)) and 0 of 10 (dose: 2400.0 mg/kg/injection, schedule: Q01DX001 (ip), vehicle: carboxymethylcellulose (CMC)).
Consider `Nc1ncc(CBr)c(N)n1`, for which the survivor count under setting [2] is listed as 3 of 6.
With `O=C(O)C1(Br)CC12c1ccccc1-c1ccccc12` (configuration not stated), the survivor count (dose: 400.0 mg/kg/injection, schedule: Q01DX001 (ip), vehicle: acetone) is listed as 0 of 6.
Consider `O=C(CCl)Nc1ccc(O)c2ccccc12`, for which the survivor count (dose: 300.0 mg/kg/injection, schedule: Q01DX001 (ip), vehicle: other) is on record as 0 of 6.
In the case of `CC(C)n1ncc2c(N)ncnc21`, the survivor count (dose: 60.0 mg/kg/injection, schedule: Q01DX001 (ip), vehicle: saline) was 0 of 6.
With `CCC[CH2][Sn]1([CH2]CCC)[O]OC(c2ccc(OC)cc2)[O]1` (configuration not stated), the survivor count is 3 of 3 (dose: 25.0 mg/kg/injection, schedule: Q01DX005 (sc), vehicle: olive oil, sesame oil, peanut oil); 5 of 6 and 3 of 3 (dose: 25.0 mg/kg/injection, schedule: Q01DX009 (sc), vehicle: olive oil, sesame oil, peanut oil); 3 of 3 (dose: 50.0 mg/kg/injection, schedule: Q01DX005 (sc), vehicle: olive oil, sesame oil, peanut oil); 3 of 3 (dose: 100.0 mg/kg/injection, schedule: Q01DX005 (sc), vehicle: olive oil, sesame oil, peanut oil).
With `CCC(C)C(C(=O)OC1CCN(C)CC1)c1ccccc1` (configuration not stated), the survivor count reads like this: (dose: 200.0 mg/kg/injection, schedule: Q01DX009 (ip), vehicle: saline) 1 of 6; (dose: 200.0 mg/kg/injection, schedule: Q04DX003 (ip), vehicle: saline) 2 of 6; under setting [2], 0 of 6.
Consider `CCN(CC)CCCC(C)Nc1c2ccc(Cl)cc2nc2ccc(OC)cc12` (configuration not stated), for which the survivor count by setting is: (dose: 100.0 mg/kg/injection, schedule: Q01DX Z (ip), vehicle: water) 4 of 8; (dose: 200.0 mg/kg/injection, schedule: Q01DX015 (ip), vehicle: carboxymethylcellulose (CMC)) 5 of 6; under setting [1], 0 of 4; (dose: 400.0 mg/kg/injection, schedule: Q01DX015 (ip), vehicle: carboxymethylcellulose (CMC)) 0 of 6.

The record behind these values is PubChem BioAssay AID248 (DTP/NCI, 2004).
